Measurements from article PMC12390935.
Results are given in words; binding and its absence hold for the method and conditions named. Binding seen in cells or lysates may run through a third protein. Some results given as binding are weak or reduced against the parent protein; the word gives no strength. For part of these data: Sequences can lack the tags named with a protein.

Chains of the proteins cited; added tags and fusions are not shown.
UniProt Q9UM07: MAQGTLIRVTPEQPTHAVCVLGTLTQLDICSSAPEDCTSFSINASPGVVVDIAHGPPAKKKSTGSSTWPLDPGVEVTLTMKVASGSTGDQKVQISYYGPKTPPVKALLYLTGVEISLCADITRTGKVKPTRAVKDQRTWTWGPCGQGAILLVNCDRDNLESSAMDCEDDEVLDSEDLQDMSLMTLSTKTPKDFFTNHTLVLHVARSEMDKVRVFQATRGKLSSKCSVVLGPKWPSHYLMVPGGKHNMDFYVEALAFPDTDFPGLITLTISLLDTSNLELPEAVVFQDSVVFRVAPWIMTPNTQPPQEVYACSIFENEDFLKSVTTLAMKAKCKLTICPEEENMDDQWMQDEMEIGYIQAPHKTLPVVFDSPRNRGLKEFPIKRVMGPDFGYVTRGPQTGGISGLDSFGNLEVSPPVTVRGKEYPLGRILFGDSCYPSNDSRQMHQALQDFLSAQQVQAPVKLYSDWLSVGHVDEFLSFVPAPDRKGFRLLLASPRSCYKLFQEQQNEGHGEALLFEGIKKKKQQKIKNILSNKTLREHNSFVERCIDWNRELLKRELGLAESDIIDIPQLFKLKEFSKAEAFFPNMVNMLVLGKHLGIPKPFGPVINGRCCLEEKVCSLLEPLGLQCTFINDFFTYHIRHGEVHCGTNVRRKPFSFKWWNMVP
UniProt P06733: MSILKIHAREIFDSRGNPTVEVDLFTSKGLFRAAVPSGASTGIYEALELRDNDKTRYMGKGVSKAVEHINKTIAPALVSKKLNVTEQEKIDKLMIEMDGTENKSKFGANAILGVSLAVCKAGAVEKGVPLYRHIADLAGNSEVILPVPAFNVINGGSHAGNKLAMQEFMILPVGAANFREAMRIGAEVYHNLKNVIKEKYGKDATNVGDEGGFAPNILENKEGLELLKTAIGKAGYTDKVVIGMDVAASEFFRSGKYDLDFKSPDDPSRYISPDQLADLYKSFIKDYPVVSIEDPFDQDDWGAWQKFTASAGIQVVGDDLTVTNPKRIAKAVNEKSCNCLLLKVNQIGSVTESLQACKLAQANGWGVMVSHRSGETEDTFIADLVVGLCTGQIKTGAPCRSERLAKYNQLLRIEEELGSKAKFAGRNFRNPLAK
UniProt P35579: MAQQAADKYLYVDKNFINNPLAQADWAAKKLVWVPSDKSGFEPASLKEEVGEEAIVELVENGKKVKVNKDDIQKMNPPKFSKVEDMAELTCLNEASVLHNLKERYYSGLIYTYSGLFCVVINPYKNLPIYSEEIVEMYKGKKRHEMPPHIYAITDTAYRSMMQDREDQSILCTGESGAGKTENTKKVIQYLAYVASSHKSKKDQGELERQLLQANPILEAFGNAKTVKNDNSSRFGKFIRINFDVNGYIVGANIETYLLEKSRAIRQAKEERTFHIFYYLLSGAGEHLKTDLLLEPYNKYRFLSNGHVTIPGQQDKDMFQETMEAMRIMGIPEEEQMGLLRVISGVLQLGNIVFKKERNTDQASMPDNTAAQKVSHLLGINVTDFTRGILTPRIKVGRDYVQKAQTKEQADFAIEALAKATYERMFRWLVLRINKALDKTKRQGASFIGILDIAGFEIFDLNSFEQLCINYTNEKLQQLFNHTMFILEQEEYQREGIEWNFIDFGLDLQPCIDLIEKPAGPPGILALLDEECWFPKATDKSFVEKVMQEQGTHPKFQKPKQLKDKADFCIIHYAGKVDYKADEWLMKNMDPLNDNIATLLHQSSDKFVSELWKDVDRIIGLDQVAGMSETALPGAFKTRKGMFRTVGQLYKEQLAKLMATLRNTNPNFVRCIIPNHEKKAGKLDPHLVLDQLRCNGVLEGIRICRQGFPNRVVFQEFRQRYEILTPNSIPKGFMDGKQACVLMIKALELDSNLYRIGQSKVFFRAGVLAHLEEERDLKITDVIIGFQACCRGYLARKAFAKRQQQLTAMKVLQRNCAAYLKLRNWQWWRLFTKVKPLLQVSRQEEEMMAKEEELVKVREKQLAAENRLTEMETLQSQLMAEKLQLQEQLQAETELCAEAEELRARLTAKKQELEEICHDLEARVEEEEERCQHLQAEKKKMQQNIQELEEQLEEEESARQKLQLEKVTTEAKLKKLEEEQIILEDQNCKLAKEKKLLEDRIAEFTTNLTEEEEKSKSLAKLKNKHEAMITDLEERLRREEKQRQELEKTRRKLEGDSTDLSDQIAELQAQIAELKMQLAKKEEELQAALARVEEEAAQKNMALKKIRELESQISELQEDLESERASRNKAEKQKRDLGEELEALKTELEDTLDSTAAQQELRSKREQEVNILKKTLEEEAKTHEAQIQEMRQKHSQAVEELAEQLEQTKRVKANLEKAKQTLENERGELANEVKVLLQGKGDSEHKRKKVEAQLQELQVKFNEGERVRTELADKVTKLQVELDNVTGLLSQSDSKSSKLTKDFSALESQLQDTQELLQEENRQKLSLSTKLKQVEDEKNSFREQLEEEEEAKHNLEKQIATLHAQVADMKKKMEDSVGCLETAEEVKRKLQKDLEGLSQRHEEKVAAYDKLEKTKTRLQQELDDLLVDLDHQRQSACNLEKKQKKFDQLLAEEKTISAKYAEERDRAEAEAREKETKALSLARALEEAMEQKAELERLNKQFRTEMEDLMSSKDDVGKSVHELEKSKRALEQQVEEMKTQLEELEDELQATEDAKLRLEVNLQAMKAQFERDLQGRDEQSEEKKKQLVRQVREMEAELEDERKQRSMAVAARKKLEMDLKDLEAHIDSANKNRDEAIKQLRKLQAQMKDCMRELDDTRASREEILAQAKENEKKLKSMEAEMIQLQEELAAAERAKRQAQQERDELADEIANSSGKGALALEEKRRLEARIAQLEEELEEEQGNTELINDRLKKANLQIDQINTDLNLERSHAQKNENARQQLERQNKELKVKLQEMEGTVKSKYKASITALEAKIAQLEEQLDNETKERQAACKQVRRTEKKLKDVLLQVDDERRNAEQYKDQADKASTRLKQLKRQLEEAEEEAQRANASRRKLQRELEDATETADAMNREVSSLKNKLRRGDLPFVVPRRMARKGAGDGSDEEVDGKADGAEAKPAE
UniProt P60660: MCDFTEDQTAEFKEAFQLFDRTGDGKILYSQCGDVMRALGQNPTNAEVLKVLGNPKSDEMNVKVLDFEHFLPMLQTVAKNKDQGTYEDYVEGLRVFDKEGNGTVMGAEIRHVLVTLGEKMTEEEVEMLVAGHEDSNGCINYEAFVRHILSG
UniProt P14598: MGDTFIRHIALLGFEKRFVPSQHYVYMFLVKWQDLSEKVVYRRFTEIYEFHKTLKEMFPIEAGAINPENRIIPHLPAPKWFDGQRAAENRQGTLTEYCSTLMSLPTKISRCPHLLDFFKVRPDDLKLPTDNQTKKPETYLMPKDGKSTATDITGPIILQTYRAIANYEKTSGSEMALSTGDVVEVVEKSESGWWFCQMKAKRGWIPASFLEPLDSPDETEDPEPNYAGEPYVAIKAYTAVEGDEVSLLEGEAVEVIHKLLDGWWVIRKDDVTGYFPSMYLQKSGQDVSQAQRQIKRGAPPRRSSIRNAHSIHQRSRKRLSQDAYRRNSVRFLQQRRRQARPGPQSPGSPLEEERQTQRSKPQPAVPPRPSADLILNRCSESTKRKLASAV

T1: FLAG-tagged plastin-2 (LCP1), expressed in 293T cells (UniProt P13796)
T1 sequence: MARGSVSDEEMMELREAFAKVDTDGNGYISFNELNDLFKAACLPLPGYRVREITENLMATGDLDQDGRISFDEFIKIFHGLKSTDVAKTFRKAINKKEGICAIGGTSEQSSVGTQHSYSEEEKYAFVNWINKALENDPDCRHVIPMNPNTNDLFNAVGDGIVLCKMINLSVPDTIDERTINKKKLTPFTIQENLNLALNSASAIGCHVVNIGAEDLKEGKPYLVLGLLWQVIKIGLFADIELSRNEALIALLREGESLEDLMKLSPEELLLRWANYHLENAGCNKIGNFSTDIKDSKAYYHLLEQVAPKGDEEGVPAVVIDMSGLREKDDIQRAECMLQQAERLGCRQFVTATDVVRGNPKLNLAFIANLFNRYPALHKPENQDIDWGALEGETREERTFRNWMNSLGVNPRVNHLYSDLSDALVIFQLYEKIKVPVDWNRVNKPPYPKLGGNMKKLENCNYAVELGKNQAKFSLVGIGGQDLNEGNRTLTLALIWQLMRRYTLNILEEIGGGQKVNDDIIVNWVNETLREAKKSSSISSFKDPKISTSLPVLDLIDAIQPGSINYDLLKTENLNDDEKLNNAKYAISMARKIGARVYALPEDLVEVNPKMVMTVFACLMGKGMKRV

T2: FLAG-tagged stomatin (STOM1), expressed in 293T cells (UniProt P27105)
T2 sequence: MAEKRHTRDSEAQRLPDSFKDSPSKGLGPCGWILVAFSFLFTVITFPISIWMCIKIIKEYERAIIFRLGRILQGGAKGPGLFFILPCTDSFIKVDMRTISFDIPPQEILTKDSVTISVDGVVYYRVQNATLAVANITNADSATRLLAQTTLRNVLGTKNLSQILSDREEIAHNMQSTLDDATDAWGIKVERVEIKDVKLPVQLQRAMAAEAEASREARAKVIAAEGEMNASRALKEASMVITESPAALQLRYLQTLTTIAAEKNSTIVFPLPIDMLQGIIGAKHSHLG

B1: stomatin (STOM), endogenous in neutrophils (protein, UniProt P27105 1-288)
chain: T2 sequence
B2: grancalcin (GCA), endogenous in neutrophils (protein, UniProt P28676 1-217)
chain: MAYPGYGGGFGNFSIQVPGMQMGQPVPETGPAILLDGYSGPAYSDTYSSAGDSVYTYFSAVAGQDGEVDAEELQRCLTQSGINGTYSPFSLETCRIMIAMLDRDHTGKMGFNAFKELWAALNAWKENFMTVDQDGSGTVEHHELRQAIGLMGYRLSPQTLTTIVKRYSKNGRIFFDDYVACCVKLRALTDFFRKRDHLQQGSANFIYDDFLQGTMAI

Legend:
[1] = target: protein arginine deiminase 4 (PAD4), endogenous in neutrophils (human (endogenous in neutrophils)) (UniProt Q9UM07); assay: proximity ligation; Duolink PLA in fixed, permeabilized neutrophils of patients with RA or healthy controls; anti-PAD4 combined with anti-MYH9, anti-GCA, anti-MYL6, anti-NCF1 or anti-STOM; anti-PAD4 alone as negative control
[2] = target: FLAG-tagged enolase-1 (ENO1), expressed in 293T cells (UniProt P06733); assay: co-IP; 293T cells co-transfected with HA-tagged PAD4 and FLAG-tagged GCA, ENO1, LCP1 or STOM1; Pierce IP Lysis Buffer; anti-FLAG resin or anti-HA agarose; immunoblot
[3] = target: T1, FLAG-tagged plastin-2 (LCP1), expressed in 293T cells; assay: as above
[4] = target: T2, FLAG-tagged stomatin (STOM1), expressed in 293T cells; assay: as above
[5] = target: myosin-9, endogenous in THP-1 cells (human (endogenous in THP-1)) (UniProt P35579); assay: co-IP; THP-1 lysate (Pierce IP Lysis Buffer, protease inhibitors, 1 mM EGTA); anti-myosin 9 on protein G beads, 2 h; beads alone and normal rabbit IgG as controls; immunoblot for endogenous PAD4

Row | Molecule | binding [1] | also measured
1 | myosin-9 (MYH9), endogenous in neutrophils (from UniProt P35579 1-1960) | binds | 
2 | HA-tagged PAD4 (full length), expressed in 293T cells (from UniProt Q9UM07 1-663) (enzyme) |  | binding [2]: binds; binding [3]: binds; binding [4]: binds
3 | myosin light chain 6 (MYL6), endogenous in neutrophils (from UniProt P60660 1-151) | binds | 
4 | neutrophil cytosolic factor-1 (NCF1), endogenous in neutrophils (from UniProt P14598 1-390) | binds | 
5 | PAD4, endogenous in THP-1 cells (from UniProt Q9UM07 1-663) (enzyme) |  | binding [5]: binds
6 | B1 | binds | 
7 | B2 | binds | 
